The list shows a part of the results.
How the values were obtained:
Test in all cases: log2 fold change, soluble protein after heating vs DMSO (PISA); higher = thermal stabilisation; K562 lysate, 10 uM; active = over 0.2 and 3.5 SD of the protein, either way, in both replicates (recomputed)
[1] = compound: CN1CC[C@H](c2c(O)cc(O)c3c(=O)cc(-c4ccccc4Cl)oc23)[C@H](O)C1 [alvocidib]
Method in brief: (§1)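 K562 pellets were dounce-homogenised in PBS pH 7.4 with 1 mM MgCl2, and the crude extract at 1 mg/mL protein was treated with 10 μM compound for 30 min. Aliquots were heated for 3 min across 48°C-58°C, pooled, and brought to 0.5% NP-40 at 4°C; soluble protein was the supernatant after 21,000xg for 90 min. Soluble protein was quantified by TMTpro 16plex LC-MS/MS with channel sums equalised, and reported as log2 fold change in thermal stability against DMSO controls, with values from duplicates.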

Amino acid sequences for entries named in this document (tags omitted). A change or cut given only in a name is not applied to a line headed by its entry.
UniProt P61026: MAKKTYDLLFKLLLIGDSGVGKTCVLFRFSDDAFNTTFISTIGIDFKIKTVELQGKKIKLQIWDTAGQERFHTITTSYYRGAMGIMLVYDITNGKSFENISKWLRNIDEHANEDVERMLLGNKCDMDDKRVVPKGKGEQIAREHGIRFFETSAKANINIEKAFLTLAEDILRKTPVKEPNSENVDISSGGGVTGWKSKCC
UniProt Q9P0K7: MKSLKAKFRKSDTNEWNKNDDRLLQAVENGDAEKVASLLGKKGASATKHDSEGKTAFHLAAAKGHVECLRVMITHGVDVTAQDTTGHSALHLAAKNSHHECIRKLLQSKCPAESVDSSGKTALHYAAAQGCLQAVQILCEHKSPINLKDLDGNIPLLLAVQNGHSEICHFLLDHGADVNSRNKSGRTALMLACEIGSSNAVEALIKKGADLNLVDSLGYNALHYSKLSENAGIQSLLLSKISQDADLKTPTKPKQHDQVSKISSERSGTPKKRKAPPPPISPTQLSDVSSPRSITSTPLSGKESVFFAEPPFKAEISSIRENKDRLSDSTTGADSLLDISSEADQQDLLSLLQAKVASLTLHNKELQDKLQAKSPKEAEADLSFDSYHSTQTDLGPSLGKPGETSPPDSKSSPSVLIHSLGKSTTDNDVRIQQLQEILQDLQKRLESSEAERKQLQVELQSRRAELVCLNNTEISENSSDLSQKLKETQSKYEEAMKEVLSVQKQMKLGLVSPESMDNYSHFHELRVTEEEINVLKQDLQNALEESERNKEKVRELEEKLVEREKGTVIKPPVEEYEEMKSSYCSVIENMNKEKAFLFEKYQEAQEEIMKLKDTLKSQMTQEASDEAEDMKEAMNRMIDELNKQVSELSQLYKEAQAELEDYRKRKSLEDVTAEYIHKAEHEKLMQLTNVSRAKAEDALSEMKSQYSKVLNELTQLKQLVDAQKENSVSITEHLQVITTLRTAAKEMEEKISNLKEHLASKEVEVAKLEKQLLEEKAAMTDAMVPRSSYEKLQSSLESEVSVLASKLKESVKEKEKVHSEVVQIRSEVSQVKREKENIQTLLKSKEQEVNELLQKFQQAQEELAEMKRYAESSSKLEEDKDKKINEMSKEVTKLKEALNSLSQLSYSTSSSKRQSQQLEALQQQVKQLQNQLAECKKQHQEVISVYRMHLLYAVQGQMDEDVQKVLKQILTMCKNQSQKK
UniProt Q9NS91, whole entry, looked up: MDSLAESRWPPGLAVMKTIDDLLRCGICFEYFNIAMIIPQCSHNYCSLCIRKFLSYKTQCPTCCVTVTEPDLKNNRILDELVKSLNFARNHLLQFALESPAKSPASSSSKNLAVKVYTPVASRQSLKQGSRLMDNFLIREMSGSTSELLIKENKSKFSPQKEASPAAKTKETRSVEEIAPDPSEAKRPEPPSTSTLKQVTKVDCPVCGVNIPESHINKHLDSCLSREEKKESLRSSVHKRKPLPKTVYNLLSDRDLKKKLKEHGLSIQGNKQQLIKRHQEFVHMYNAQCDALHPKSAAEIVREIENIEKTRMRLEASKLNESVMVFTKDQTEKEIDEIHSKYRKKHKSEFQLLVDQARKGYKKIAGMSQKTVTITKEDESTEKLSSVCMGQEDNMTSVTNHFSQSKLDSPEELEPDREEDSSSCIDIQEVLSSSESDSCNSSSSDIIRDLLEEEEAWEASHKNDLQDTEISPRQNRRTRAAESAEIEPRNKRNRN
UniProt Q9Y3L5: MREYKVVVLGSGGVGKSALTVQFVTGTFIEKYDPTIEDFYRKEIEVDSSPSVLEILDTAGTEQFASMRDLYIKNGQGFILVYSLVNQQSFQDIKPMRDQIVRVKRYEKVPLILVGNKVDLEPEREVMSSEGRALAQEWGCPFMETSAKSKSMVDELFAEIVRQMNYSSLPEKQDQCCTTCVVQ
UniProt Q6VN20, whole entry, looked up: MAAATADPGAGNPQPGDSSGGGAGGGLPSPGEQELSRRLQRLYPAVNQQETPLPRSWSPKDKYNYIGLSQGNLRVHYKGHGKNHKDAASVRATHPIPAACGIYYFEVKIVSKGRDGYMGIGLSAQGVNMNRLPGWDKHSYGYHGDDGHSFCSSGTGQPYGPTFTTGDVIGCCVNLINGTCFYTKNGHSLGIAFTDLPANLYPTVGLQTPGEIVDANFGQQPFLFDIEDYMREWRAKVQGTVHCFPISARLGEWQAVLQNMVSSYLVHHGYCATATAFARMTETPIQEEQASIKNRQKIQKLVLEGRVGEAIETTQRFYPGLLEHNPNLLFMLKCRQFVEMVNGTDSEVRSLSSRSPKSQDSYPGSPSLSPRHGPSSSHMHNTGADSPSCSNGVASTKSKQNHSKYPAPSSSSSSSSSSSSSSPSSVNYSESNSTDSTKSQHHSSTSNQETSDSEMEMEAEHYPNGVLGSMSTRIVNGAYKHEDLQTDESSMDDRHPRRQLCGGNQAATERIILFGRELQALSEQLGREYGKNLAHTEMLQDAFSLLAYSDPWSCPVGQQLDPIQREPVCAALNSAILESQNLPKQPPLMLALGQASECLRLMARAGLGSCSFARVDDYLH
UniProt Q6IQ22: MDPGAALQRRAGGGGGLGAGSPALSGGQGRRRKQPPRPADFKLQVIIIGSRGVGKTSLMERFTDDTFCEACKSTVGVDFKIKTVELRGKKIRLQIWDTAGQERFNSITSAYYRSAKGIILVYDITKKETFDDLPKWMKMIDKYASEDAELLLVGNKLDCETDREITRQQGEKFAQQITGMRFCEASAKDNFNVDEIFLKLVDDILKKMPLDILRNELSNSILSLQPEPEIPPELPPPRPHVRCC
UniProt Q96C36: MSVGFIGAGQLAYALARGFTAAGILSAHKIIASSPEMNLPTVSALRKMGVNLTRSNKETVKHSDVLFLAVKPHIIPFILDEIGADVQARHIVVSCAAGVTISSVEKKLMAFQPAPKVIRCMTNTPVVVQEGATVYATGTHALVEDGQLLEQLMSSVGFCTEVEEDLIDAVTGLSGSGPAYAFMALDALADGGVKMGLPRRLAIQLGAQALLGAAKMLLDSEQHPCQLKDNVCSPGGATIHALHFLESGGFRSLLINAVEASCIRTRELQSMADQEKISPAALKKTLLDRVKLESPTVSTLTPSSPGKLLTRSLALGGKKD

[2] = compound: CN1CCc2c(c3ccccc3n2Cc2ccc(C(=O)NO)cc2)C1 [Tubastatin A]
Method in brief: as §1

[3] = compound: CNC(=O)C1=CC=CC=C1NC2=NC(=NC=C2Cl)NC3=C(C=C(C=C3)N4CCOCC4)OC
Method in brief: as §1

[4] = compound: CNC(=O)c1ccc(Nc2ncc(C(F)(F)F)c(NCc3nccnc3N(C)S(C)(=O)=O)n2)cc1 [defactinib]
Method in brief: as §1

[5] = compound: CNc1nc(-c2ccc3c(N)n[nH]c3c2)cc(N2C[C@@H](C(=O)NC3CCCCC3)CC[C@H]2C)n1
Method in brief: as §1

[6] = compound: COC(=O)N[C@@H](C)CNc1nccc(-c2cn(C(C)C)nc2-c2cc(Cl)cc(NS(C)(=O)=O)c2F)n1 [encorafenib]
Method in brief: as §1

[7] = compound: COC(=O)[C@H](CCSC)NC(=O)C1=C(C=C(C=C1)NC[C@H](CS)N)C2=CC=CC=C2
Method in brief: as §1

[8] = compound: COc1cc(Nc2ncc3c(n2)-c2ccc(Cl)cc2C(c2c(F)cccc2OC)=NC3)ccc1C(=O)O [alisertib]
Method in brief: as §1

[9] = compound: COc1cc2nc(-c3cc(F)ccc3O)nc(N[C@@H]3CNC[C@H]3C(C)(C)O)c2cc1OC
Method in brief: as §1

[10] = compound: COc1cc2ncnc(Nc3ccc(F)c(Cl)c3)c2cc1OCCCN1CCOCC1 [gefitinib]
Method in brief: as §1

[11] = compound: CS(=O)(=O)CCNCc1ccc(-c2ccc3ncnc(Nc4ccc(OCc5cccc(F)c5)c(Cl)c4)c3c2)o1 [lapatinib]
Method in brief: as §1

[12] = compound: CS(=O)(=O)N1CCN(Cc2cc3nc(-c4cccc5[nH]ncc45)nc(N4CCOCC4)c3s2)CC1 [pictilisib]
Method in brief: as §1

[13] = compound: C[C@@H](Oc1cc(-c2cnn(C3CCNCC3)c2)cnc1N)c1c(Cl)ccc(F)c1Cl [crizotinib]
Method in brief: as §1

[14] = compound: C[C@H](C1=CC=C(C=C1)C(=O)NC2=C3C=CNC3=NC=C2)N
Method in brief: as §1

[15] = compound: C[C@H](Nc1ncnc2nc[nH]c12)c1cc2cccc(Cl)c2c(=O)n1-c1ccccc1 [duvelisib]
Method in brief: as §1

[16] = compound: Cc1cc(Nc2cc(CN3CCOCC3)c3nc(C)c(Cc4ccc(Cl)cc4F)n3n2)n[nH]1 [gandotinib]
Method in brief: as §1

[17] = compound: Cc1cc(Nc2cc(N3CCN(C)CC3)nc(Sc3ccc(NC(=O)C4CC4)cc3)n2)n[nH]1 [tozasertib]
Method in brief: as §1

[18] = compound: Cc1ccc(-n2nc(C(C)(C)C)cc2NC(=O)Nc2ccc(OCCN3CCOCC3)c3ccccc23)cc1 [doramapimod]
Method in brief: as §1

[19] = compound: Cc1ccc(NC(=O)c2ccc(CN3CC[C@H](N(C)C)C3)c(C(F)(F)F)c2)cc1Nc1nccc(-c2cncnc2)n1 [bafetinib]
Method in brief: as §1

[20] = compound: Cc1cccc(CC(=O)N2CCc3c2ccc(-c2cn(C)c4ncnc(N)c24)c3F)n1
Method in brief: as §1

Measured: log2 fold change

RAB10 (UniProt P61026)
inactive: [1] 0.003 | [2] 0.051 | [3] -0.032 | [4] 0.003 | [5] 0.02 | [6] 0.019 | [7] -0.02 | [8] 0.06 | [9] 0.082 | [10] 0.073 | [11] 0.049 | [12] -0.014 | [13] 0.083 | [14] -0.026 | [15] -0.021 | [16] -0.004 | [17] 0.016 | [18] -0.018 | [19] 0.015 | [20] -0.007

RAI14 isoform 2 (UniProt Q9P0K7)
inactive: [1] 0.019 | [2] -0.08 | [3] 0.003 | [4] 0.031 | [5] 0.077 | [6] 0.012 | [7] 0.083 | [8] -0.018 | [9] 0 | [10] 0.029 | [11] -0.026 | [12] -0.007 | [13] -0.014 | [14] 0 | [15] -0.025 | [16] -0.051 | [17] 0.009 | [18] 0 | [19] -0.029 | [20] 0.002

RAD18 (UniProt Q9NS91)
inactive: [1] -0.017 | [2] 0.008 | [3] 0.038 | [4] 0.019 | [5] 0.009 | [6] 0.044 | [7] -0.073 | [8] 0.028 | [9] 0.019 | [10] -0.014 | [11] -0.093 | [12] 0.006 | [13] 0.015 | [14] 0.014 | [15] 0.023 | [16] 0.002 | [17] 0.04 | [18] 0.04 | [19] -0.024 | [20] 0.022

RAC2 (UniProt P15153)
inactive: [1] 0.047 | [2] -0.086 | [3] 0.082 | [4] 0.007 | [5] 0.06 | [6] -0.022 | [7] -0.001 | [8] 0.051 | [9] 0.056 | [10] 0.016 | [11] -0.057 | [12] 0.016 | [13] -0.018 | [14] -0.05 | [15] -0.026 | [16] -0.025 | [17] -0.062 | [18] -0.014 | [19] -0.042 | [20] 0.031

RAP2C (UniProt Q9Y3L5)
inactive: [1] 0.051 | [2] 0.039 | [3] 0.037 | [4] -0.025 | [5] -0.051 | [6] -0.056 | [7] -0.001 | [8] 0.026 | [9] 0.059 | [10] -0.089 | [11] 0.062 | [12] -0.135 | [13] -0.028 | [14] 0.038 | [15] 0.053 | [16] -0.077 | [17] 0.086 | [18] -0.004 | [19] 0.085 | [20] 0.157

RANBP10 (UniProt Q6VN20)
inactive: [1] 0.031 | [2] -0.01 | [3] 0.034 | [4] 0.057 | [5] 0.019 | [6] -0.023 | [7] 0.057 | [8] 0.01 | [9] -0.033 | [10] -0.062 | [11] 0.05 | [12] -0.049 | [13] -0.03 | [14] -0.019 | [15] -0.01 | [16] -0.009 | [17] 0.046 | [18] -0.022 | [19] -0.132 | [20] 0.022

RAB12 (UniProt Q6IQ22)
inactive: [1] -0.014 | [2] 0.045 | [3] 0.014 | [4] 0.015 | [5] -0.027 | [6] -0.004 | [7] -0.017 | [8] -0.003 | [9] 0.024 | [10] 0.076 | [11] -0.016 | [12] -0.029 | [13] -0.034 | [14] -0.06 | [15] 0.025 | [16] 0.022 | [17] -0.006 | [18] 0.048 | [19] -0.029 | [20] 0.04

PYCR2 (UniProt Q96C36)
inactive: [1] -0.052 | [2] 0.041 | [3] 0.004 | [4] 0.001 | [5] 0.011 | [6] -0.005 | [7] -0.038 | [8] 0.013 | [9] -0.001 | [10] -0.005 | [11] -0.029 | [12] -0.021 | [13] 0.026 | [14] 0.021 | [15] -0.004 | [16] 0.01 | [17] 0.001 | [18] -0.012 | [19] 0.034 | [20] -0.01
